Data source: PubChem BioAssay AID1508597 (Cure First, 2020)

Purpose: 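Genes whose silencing sensitises or protects ovarian cancer cells against rucaparib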 (primary screen)
Cell system: human ovarian carcinoma lines grown from tumours: OCI-P5x (papillary serous) and OCI-C5x (clear cell)
Knock-down reagent: siRNA pool against human genes, 1.25 pmol siRNA per well
Time to read-out: 72 h or 96 h, depending on the cell culture
Conditions: rucaparib 20 µM (about IC30) or vehicle, present until read-out
Rucaparib or vehicle: Vehicle
Cell line: OCI-P5x (serous)
Measured: 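Luminescent ATP-based viability assay read 72 or 96 h after transfection, depending on culture, given as normalised percent viability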
Scale: viability, normalised: higher = more viable cells remaining
Rule for the call: 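Active when normalised viability falls below 80 percent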
Calls: active = viability under 80%; inactive = viability 80% or more
This is a random part of the about 2,100 reagents, under one of the conditions tested. 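Calls flag viability under 80% in either arm, not effects specific to rucaparib; the reference for percent is not stated.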 Unmarked entries are inactive. Some reagents were tested in more than one well and are listed for each. Not given: the 100% reference.

With CDKL4, technical replicate 1, the entry reads viability, normalised (%) = 116.
With CDKL4, technical replicate 2 the deposit lists viability, normalised (%) = 106.
For CDKL4, technical replicate 3 the deposit lists viability, normalised (%) = 108.
MTRFR, technical replicate 1 gave viability, normalised (%) = 60.1 (active).
MTRFR, technical replicate 2 scored viability, normalised (%) = 66.2 (active).
With MTRFR, technical replicate 3 the deposit lists viability, normalised (%) = 73.1 (active).
For WDR77, technical replicate 1, the entry reads viability, normalised (%) = 46.4 (active).
WDR77, technical replicate 2 gave viability, normalised (%) = 46.2 (active).
With WDR77, technical replicate 3 the deposit lists viability, normalised (%) = 39.3 (active).
DDX46, technical replicate 1 showed viability, normalised (%) = 66.4 (active).
With DDX46, technical replicate 2, the values are viability, normalised (%) = 75.9 (active).
DDX46, technical replicate 3 scored viability, normalised (%) = 61.3 (active).
MMS19, technical replicate 1 scored viability, normalised (%) = 87.
MMS19, technical replicate 2 gave viability, normalised (%) = 74.4 (active).
MMS19, technical replicate 3 gave viability, normalised (%) = 71.7 (active).
For MSH5, technical replicate 1, the values are viability, normalised (%) = 87.9.
MSH5, technical replicate 2 scored viability, normalised (%) = 85.3.
For MSH5, technical replicate 3, the entry reads viability, normalised (%) = 88.5.
CPS1, technical replicate 1 gave viability, normalised (%) = 59.3 (active).
CPS1, technical replicate 2 gave viability, normalised (%) = 66.5 (active).
CPS1, technical replicate 3 gave viability, normalised (%) = 55.5 (active).

Part of the list above in another layout.
MSH5, technical replicate 2
- viability, normalised (%): 85.3

MSH5, technical replicate 3
- viability, normalised (%): 88.5

CPS1, technical replicate 1
- viability, normalised (%): 59.3 (active)

CPS1, technical replicate 2
- viability, normalised (%): 66.5 (active)

CPS1, technical replicate 3
- viability, normalised (%): 55.5 (active)

Continued:
WRN, technical replicate 1 scored viability, normalised (%) = 58.8 (active).
With WRN, technical replicate 1, the values are viability, normalised (%) = 65.3 (active).
For WRN, technical replicate 2 the deposit lists viability, normalised (%) = 59 (active).
WRN, technical replicate 2 scored viability, normalised (%) = 93.5.
For WRN, technical replicate 3, the values are viability, normalised (%) = 76.2 (active).
WRN, technical replicate 3 gave viability, normalised (%) = 50.7 (active).
HERC3, technical replicate 1 gave viability, normalised (%) = 37.4 (active).
For HERC3, technical replicate 2, the entry reads viability, normalised (%) = 65.9 (active).
HERC3, technical replicate 3 showed viability, normalised (%) = 112.
DPYD, technical replicate 1 gave viability, normalised (%) = 62 (active).
DPYD, technical replicate 2 scored viability, normalised (%) = 59.3 (active).
DPYD, technical replicate 3 gave viability, normalised (%) = 50.7 (active).
For DDX5, technical replicate 1, the values are viability, normalised (%) = 64.1 (active).
For DDX5, technical replicate 1 the deposit lists viability, normalised (%) = 73.8 (active).
For DDX5, technical replicate 2, the entry reads viability, normalised (%) = 69.2 (active).
For DDX5, technical replicate 2, the entry reads viability, normalised (%) = 93.4.
For DDX5, technical replicate 3 the deposit lists viability, normalised (%) = 74.2 (active).
With DDX5, technical replicate 3, the values are viability, normalised (%) = 71.8 (active).
For BCL3, technical replicate 1 the deposit lists viability, normalised (%) = 76.3 (active).
BCL3, technical replicate 2 showed viability, normalised (%) = 75.4 (active).
BCL3, technical replicate 3 showed viability, normalised (%) = 90.8.
